# Measured values: paper PMC10272187, “PPP2R1A regulates migration persistence through the NHSL1-containing WAVE Shell Complex” (Nature Communications, 2023)
# Protein sequences, listed by entry. Tags and fused reporters are not part of them. Residues count along the entry.
# UniProt Q8IZP0, residues 1-158: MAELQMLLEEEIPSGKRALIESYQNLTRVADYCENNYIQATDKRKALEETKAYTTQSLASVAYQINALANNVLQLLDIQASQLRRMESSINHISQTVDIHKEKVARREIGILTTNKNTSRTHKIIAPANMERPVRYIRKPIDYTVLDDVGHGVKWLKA
# UniProt Q92558, residues 1-230: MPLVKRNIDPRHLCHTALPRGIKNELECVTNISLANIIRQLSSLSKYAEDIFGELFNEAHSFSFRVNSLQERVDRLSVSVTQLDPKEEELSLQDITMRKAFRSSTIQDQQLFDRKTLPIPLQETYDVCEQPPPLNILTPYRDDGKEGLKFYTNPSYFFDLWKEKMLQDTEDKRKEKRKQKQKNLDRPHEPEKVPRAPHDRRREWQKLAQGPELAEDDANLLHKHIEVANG
# No constants are given. Whether binding was seen depends on the method and setting. Some results given as binding are weak or reduced against the parent protein; the word gives no strength.
# Molecular target: ABI1 (1-158) (UniProt Q8IZP0)
# Test: SEC; Recombinant subunits expressed individually; CYFIP1-NCKAP1 dimer and BRK1-ABI1-NHSL1 (or WAVE1) trimer reconstituted; pentamers purified on SOURCE 15Q and Superdex 200 (24 ml column); both purified
substance,measurement,value
WAVE1 (1-230) (from UniProt Q92558 1-230) (domain or fragment),binding,binds
